# These are yes or no findings as the source states them, for the method shown. Binding seen in cells or lysates may run through a third protein. Some entries that bind do so weakly or less than the wild type.
# B1: SIRT2 (protein, UniProt Q8IXJ6 1-389)
# chain: MAEPDPSHPLETQAGKVQEAQDSDSDSEGGAAGGEADMDFLRNLFSQTLSLGSQKERLLDELTLEGVARYMQSERCRRVICLVGAGISTSAGIPDFRSPSTGLYDNLEKYHLPYPEAIFEISYFKKHPEPFFALAKELYPGQFKPTICHYFMRLLKDKGLLLRCYTQNIDTLERIAGLEQEDLVEAHGTFYTSHCVSASCRHEYPLSWMKEKIFSEVTPKCEDCQSLVKPDIVFFGESLPARFFSCMQSDFLKVDLLLVMGTSLQVQPFASLISKAPLSTPRLLINKEKAGQSDPFLGMIMGLGGGMDFDSKKAYRDVAWLGECDQGCLALAELLGWKKELEDLVRREHASIDAQSGAGVPNPSTSASPKKSPPPAKDEARTTEREKPQ
# Molecular target: Ras homolog enriched in brain (Rheb) (human (endogenous in HeLa)) (UniProt Q15382)
# Assay: co-IP; endogenous Rheb immunoprecipitated from HeLa lysate (750-1000 ug protein, 2 ug Rheb-specific antibody, overnight at 4 °C, magnetic protein G beads) and probed for SIRT2 by western blot; lysis buffer 20 mM Tris-HCl pH 7.5, 150 mM NaCl, 1 mM EDTA, 1 mM EGTA, 1% Triton X100; basal conditions
binder,measurement,value
B1,binding,binds

# Source: article PMC13261059
